Measurements reported in PubChem BioAssay AID602196 (INSERM, 2012).
Assay: 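Genes whose knock-down alters cisplatin killing of lung cancer cells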. Cell system: human A549 lung cancer cells. Knock-down reagent: siRNA pair against human genes. Time to read-out: 48 h transfection before cisplatin; time from cisplatin to read-out not stated. Challenge: cisplatin at a dose killing half of control-siRNA cells; exact dose and duration not given. Measured: 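Cisplatin cell death as a shift from the 50% death seen with control siRNA; siRNAs toxic or growth-blocking alone scored 0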. Scale: two-siRNA summed score (-2 to +2): higher = both siRNAs protect from cisplatin killing; -2 means both sensitise; mean protection from cisplatin (shift in death) and protection from cisplatin (shift in death), siRNA C: higher = protection from cisplatin killing. Hit rule: 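Each siRNA scores 0 if harmful alone by LDH or WST-1, otherwise +1 if it reduces and -1 if it increases cisplatin killing; a gene is active when both siRNAs agree (sum +2 or -2)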. Meaning of the calls: active = both siRNAs shift cisplatin killing the same way; inactive = no consistent shift, or siRNA harmful alone.
In all, the deposit lists about 23,000 reagents; below is a part drawn at random. 455 of them (2%) count as active. 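Active includes both protection and sensitisation; some change values fall well beyond the stated -50 to +50 range.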 The numbers tell different reagents against one gene apart. Further read-outs or replicates are left out here. No sequences are given here. Not stated in the record: the amount of reagent.

no.	gene knocked down	reagent	two-siRNA summed score (-2 to +2)	mean protection from cisplatin (shift in death) (%)	protection from cisplatin (shift in death), siRNA C (%)	Call
1	EXOG	1	-1	-2.6	9.6	inactive
2	SAR1B	1	1	13.6	22.5	inactive
3	LOC401287	1	0	6.6	9.4	inactive
4	LOC90379	1	0	11	-1.5	inactive
5	GPR37L1	1	0	-1.1	-0.5	inactive
6	TMEM26	1	0	-1.2	-0.1	inactive
7	GSE1	1	0	-0.6	-7.6	inactive
8	TBCD	1	0	3.3	9.5	inactive
9	LOC253883	1	0	7.7	2.3	inactive
10	OR2A12	1	0	1.9	-1	inactive
11	ANAPC5	1	0	-3.4	14.2	inactive
12	LOC390729	1	1	22	32.4	inactive
13	GLIS1	1	0	-4	-3.4	inactive
14	DUSP16	1	0	-2.2	-4.5	inactive
15	ABCD3	1	-1	-12.7	-28.3	inactive
16	DUSP6	1	0	2.5	12.8	inactive
17	OPRL1	1	-1	-5.3	-21.5	inactive
18	LOC345079	1	0	-4.5	-2.2	inactive
19	UBE2E3	1	0	9.6	3.9	inactive
20	ZNF24	1	0	-3.2	-13.6	inactive
21	PLA2G2E	1	0	4.2	10	inactive
22	DECR2	1	0	-13.5	5.6	inactive
23	LOC442431	1	0	2.2	2.2	inactive
24	LINC00863	1	0	8	22	inactive
25	LOC391542	1	1	9.4	3.4	inactive
26	TAAR6	1	1	4.8	-2.3	inactive
27	ALKBH2	1	-1	-7.9	3.6	inactive
28	ZNF593	1	0	-6.4	-7.1	inactive
29	GUCY2F	1	-1	-8	-11.8	inactive
30	MYO7B	1	0	15.8	7.2	inactive
31	GPRIN1	1	1	7.3	5.6	inactive
32	LOC285253	1	0	3.6	11.4	inactive
33	LOC442385	1	1	4.6	-11	inactive
34	ATP5F1B	1	1	16.4	28.3	inactive
35	GMFB	1	0	-3.2	-5.7	inactive
36	SARNP	1	0	0.8	5.9	inactive
37	MS4A2	1	-1	-6.9	-9.5	inactive
38	SCLY	1	0	0.1	3.4	inactive
39	LOC442556	1	1	12.8	6.5	inactive
40	LOC440598	1	0	17	11.7	inactive
41	LOC441999	1	0	1.9	-4.7	inactive
42	OR10X1	1	0	9.5	5.1	inactive
43	SYT17	1	0	7	8.9	inactive
44	IL27RA	1	0	-11	9.1	inactive
45	C1QTNF5	1	1	6.6	-4.3	inactive
46	BLOC1S3	1	1	20	11.1	inactive
47	RPS6KB1	1	1	17.7	13.7	inactive
48	TMSB4X	1	0	-6.3	-11.7	inactive
49	TMSB4X	2	0	13.9	9.3	inactive
50	NRBP1	1	1	13.4	32.1	inactive
51	LOC389991	1	0	7.2	13	inactive
52	TOX	1	0	8.9	10.9	inactive
53	OLFML2B	1	0	10.1	-4.1	inactive
54	NDUFB3	1	0	4.1	15.4	inactive
55	FKBP3	1	0	5.1	5.5	inactive
56	LOC144245	1	0	8.2	3.5	inactive
57	ABHD16B	1	-1	-8.7	2.1	inactive

Limited to “protection from cisplatin (shift in death), siRNA C (%)”, for 7 of the entries above:
C1QTNF5	-4.3
BLOC1S3	11.1
RPS6KB1	13.7
TMSB4X #1	-11.7
TMSB4X #2	9.3
NRBP1	32.1
LOC389991	13
